{"source": "patent US20160053248A1", "about": "“SYSTEMS AND METHODS FOR EVOLVING ENZYMES WITH DESIRED ACTIVITIES” (Potomac Affinity Proteins, LLC, priority 2009, published 2016)", "binders": {"B1": {"name": "prodomain variant pS156 (protein)", "chain": "AGKSNGEKKYIVGFKQTMSTMSAAKKKDVISEKGGKVQKQFKYVDAASATLNEKAVKELKKDPSVAYVEEDHVFKAY"}}, "biological_target": "T1, subtilisin variant SBT189 (Bacillus amyloliquefaciens (Bacillus velezensis)) (UniProt P00782)", "T1 sequence": "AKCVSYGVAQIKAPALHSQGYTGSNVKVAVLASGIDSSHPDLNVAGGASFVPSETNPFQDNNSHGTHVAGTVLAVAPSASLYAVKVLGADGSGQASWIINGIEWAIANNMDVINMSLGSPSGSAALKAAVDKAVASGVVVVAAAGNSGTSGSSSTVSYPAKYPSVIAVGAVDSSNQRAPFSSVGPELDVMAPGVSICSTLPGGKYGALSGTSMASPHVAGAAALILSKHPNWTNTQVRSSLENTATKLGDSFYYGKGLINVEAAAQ", "assay": "complex formed at 100 µM for the activation cascade", "note": "No constants are given. Whether binding was seen depends on the method and setting. Some entries that bind do so weakly or less than the wild type."}
{"binder": "B1", "values": [{"measurement": "binding", "result": "binds"}]}
